# Source: PubChem BioAssay AID504467 (National Center for Advancing Translational Sciences (NCATS), 2011)
# Out of some 330,000 compounds screened, about 7,700 (2.3%) were called active. The inconclusive results got no clear call from the source; some entries with a clear call stand among them for comparison. Calls come from the whole dose curve; as a rule, active = well fitted inhibition curve with a large enough effect; inconclusive = small, poorly fitted or top-dose-only effect, or effect the other way; inactive = flat fitted curve, though single readings scatter. Potencies of inconclusive entries are doubtful fits and often do not repeat.
# Assay: qHTS screen for small molecules that inhibit ELG1-dependent DNA repair in human embryonic kidney (HEK293T) cells expressing luciferase-tagged ELG1; note: nearly all actives have a fitted effect of over 55% in size
# Conditions: HEK293T ELG1-luciferase reporter, luminescence, 16 h, DNA damage induced by 5-fluorouridine; activity change, negative = inhibition: at 46.1 µM (top of the series)
# How it was run: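 Luminescence from the luciferase reporter, measured 30 min after ONE-Glo reagent at room temperature, was the read-out. Beforehand, 2,000 cells per well were exposed for 16 hr at 37 °C to 5-fluorouridine together with compound or vehicle.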
# % is set by controls: 0 for no effect and ±100 for the full control effect; potency is the fitted concentration of half-maximal effect.
Structure (SMILES),Potency,"activity change, negative = inhibition"
O=S(=O)(c1cccc(-c2nnc(SCc3nc4ccccc4s3)o2)c1)N1CCOCC1,"inconclusive: 13 µM [activator, partial curve]",
O=C(Nc1ccccc1-c1ccccc1)C1CCC1,"inconclusive: 18.3 µM [activator, partial curve]",
CCCCN(C(=O)CSCC(=O)Nc1cccc(C)c1)c1c(N)n(Cc2ccccc2)c(=O)[nH]c1=O,"inconclusive: 1.3 µM [activator, partial curve, poor fit]",
COc1cc(-c2nc(-c3ccc(NC(=O)c4ccc(Br)o4)cc3)no2)cc(OC)c1OC,active: 10.3 µM,
CCCN1CCc2c(sc3nc(SCC)n(-c4ccc(OC)cc4)c(=O)c23)C1,,inactive: -4.14%
CC1CCc2nc(N)c(C#N)c(-c3cccnc3)c2C1 (stereo unspecified),active: 1.16 µM,
O=C(Nc1ccccn1)c1ccc2c(c1)S(=O)(=O)c1ccccc1C2=O,"inconclusive: 11.6 µM [activator, partial curve, poor fit]",
CN(C)c1nc(Nc2ccccc2)nc(N(C)C)n1,"inconclusive: 29.1 µM [inhibitor, single point]",
COC(=O)c1[nH]c2cc(OC)c(OC)cc2c1NC(=O)CN1CCN(Cc2ccccc2)CC1,active: 1.58 µM,
O=C(Nc1cccc(S(=O)(=O)N2CCCCCC2)c1)C1CCC1,,inactive: 11.1%
COc1ccc(CN(C2CCCCC2C)S(=O)(=O)c2ccc(S(=O)(=O)N(C)C)cc2)cc1OC (stereo unspecified),"inconclusive: 23.1 µM [inhibitor, partial curve, poor fit]",
CCOc1ccc(/C=N/NC(=O)c2cc(-c3ccccc3)nc3ccccc23)cc1O,,inactive: -15.9%
N#CC(C#N)=Cc1c(N2CCN(c3ccccc3)CC2)nc2ccccn2c1=O,"inconclusive: 20.6 µM [activator, single point]",
Cc1ccc(S(=O)(=O)NC2(C(F)(F)F)NC(=O)N(C)C2=O)cc1 (stereo unspecified),"inconclusive: 6.51 µM [inhibitor, single point]",
Cn1c(=O)c2c(SCc3cccnc3)nc(C3CC3)nc2n(C)c1=O,,inactive: -2.21%
Cc1cc(C(=O)N/N=C/c2ccc([N+](=O)[O-])s2)n[nH]1,active: 16.4 µM,
Cc1ccc(S(=O)(=O)N2CCN(C(=O)CN3CCc4ccccc4C3)CC2)cc1,"inconclusive: 5.8 µM [inhibitor, partial curve, poor fit]",
O=C(NNC1=C(C(=O)C(F)(F)F)CCC1)c1ccccc1Cl,"inconclusive: 13 µM [inhibitor, partial curve]",
COC(=O)Nc1nnc(COc2ccccc2)s1,,inactive: -3.77%
O=C(NNc1nc2ccccc2o1)c1ccccc1,"inconclusive: 2.06 µM [activator, full curve]",
CC(C)CCOC(=O)/C(=C/c1ccco1)NC(=O)/C=C/c1ccccc1,"inconclusive: 8.2 µM [inhibitor, partial curve, poor fit]",
CCOC(=O)C1(CC2CCCCO2)CCN(Cc2ccccc2-c2ccco2)CC1 (stereo unspecified),,inactive: 1.43%
CC1(C)C(=O)N(OCc2ccccc2)C(C)(C)C(=O)N1OCc1ccccc1,"inconclusive: 23.1 µM [inhibitor, partial curve]",
CCOC(=O)N1CCN(C(=O)CSCc2ccccc2)CC1,"inconclusive: 13 µM [activator, partial curve]",

Structure (SMILES),Potency,"activity change, negative = inhibition"
COc1ccccc1-n1cnc2cc(C(=O)NCC3CCCO3)ccc21 (stereo unspecified),,inactive: 11.5%
COc1cc(-c2nc(-c3ccc(Br)o3)no2)cc(OC)c1OC,"inconclusive: 29.1 µM [inhibitor, single point]",
CCCC(CCC(=O)OC)(C(=O)OCC)c1csc(N)n1 (stereo unspecified),"inconclusive: 16.4 µM [activator, partial curve, poor fit]",
CC(=O)N(Cc1ccc(F)cc1)C1=C(NCc2ccccc2)C(=O)c2ccccc2C1=O,active: 20.6 µM,
COc1cc(/C=N/NC(=O)c2ccccc2O)ccc1OC(=O)CC1SC(=O)NC1=O (stereo unspecified),"inconclusive: 5.8 µM [activator, partial curve, poor fit]",
O=C1c2cccc3c([N+](=O)[O-])ccc(c23)C(=O)N1Cc1cccnc1,"inconclusive: 14.6 µM [inhibitor, partial curve, poor fit]",
Cc1ccc(NC(=S)Nc2cccnc2)c(S(=O)(=O)N2CCCCC2)c1,"inconclusive: 29.1 µM [inhibitor, single point]",
c1ccc(Cc2nnc(Sc3ccccc3)c3ccccc23)cc1,"inconclusive: 20.6 µM [activator, single point]",
CC(=O)c1cccc(S(=O)(=O)N(CCCO)Cc2cc3ccc(C)cc3[nH]c2=O)c1,,inactive: -17.8%
CSc1cccc(NC(=O)c2ccccn2)c1,"inconclusive: 18.3 µM [activator, partial curve]",
CN(CCO)c1cc(Sc2nc3ccccc3s2)c2nonc2c1[N+](=O)[O-],,inactive: 16.4%
COc1ccc(C(=O)NC(=O)NC2(C(Cl)(Cl)Cl)OCCO2)cc1,"inconclusive: 2.59 µM [activator, partial curve]",
C[C@]12CC[C@@H]3c4ccc(OC(=O)c5ccccc5)cc4CC[C@H]3[C@@H]1CC[C@@H]2O,,inactive: 15.9%
O=C(CSc1nc2ccccc2c(=O)[nH]1)c1ccc(O)cc1O,,inactive: 1.09%
Cc1cc(C)cc(OCC(=O)NC2=NCCS2)c1,"inconclusive: 13 µM [activator, partial curve, poor fit]",
CC(=O)Nc1ccc(S(=O)(=O)Nc2nc(C)nc3sc(C)c(C)c23)cc1,,inactive: -4.81%
Cc1ccc(-c2nnc(N3CCCCC3)c3ccccc23)cc1S(=O)(=O)NCC1CCCO1 (stereo unspecified),"inconclusive: 29.1 µM [inhibitor, single point]",
Cc1cccc(N2CCN(C(=O)c3cccc(N4CCCC4=O)c3)CC2)c1C,"inconclusive: 20.6 µM [inhibitor, single point]",
Cc1ccc(C)c(S(=O)(=O)N2CCN(c3ncnc4sccc34)CC2)c1,active: 1.83 µM,
C/C(=N\NC(=O)c1ccc(-n2cnnn2)cc1)c1ccc(C)cc1,,inactive: -6.36%
Cc1ccnc(NC(c2ccccn2)c2c(C)[nH]c3ccccc23)c1 (stereo unspecified),,inactive: -5.34%
CCSc1nnc(NC(=O)CN2C(=O)NC3(CCCC3)C2=O)s1,,inactive: 12.9%
O=C(Nc1ccc(N2CCN(C(=O)c3ccco3)CC2)c(Cl)c1)c1cccs1,active: 4.11 µM,
O=C(NC1CCCCC1)NC1CC2CCC(C1)N2C(=S)NCc1ccco1 (stereo unspecified),,inactive: -0.158%

Structure (SMILES),Potency,"activity change, negative = inhibition"
O=C(COC(=O)c1cc(-c2ccco2)nc2ccccc12)NCc1ccc2c(c1)OCO2,,inactive: -10.3%
CCc1ccc(CN2CCC(n3nccc3NC(=O)C3CCCC3)CC2)cc1,,inactive: -12.5%
CCOC(=O)c1c(C)[nH]c(N=Nc2cccc(C)c2)c1C,"inconclusive: 2.91 µM [activator, partial curve]",
COc1ccc(OC)c(/C=C/C(=O)Nc2cccc(S(=O)(=O)NC3=NCCCCC3)c2)c1,"inconclusive: 23.1 µM [inhibitor, single point]",
Cc1ccc(C(=O)OCC(=O)N(CCc2ccccc2)Cc2ccccc2)cc1S(=O)(=O)N1CCOCC1,"inconclusive: 18.3 µM [inhibitor, partial curve, poor fit]",
Cc1cccc(NC(=O)c2ccc(S(=O)(=O)N3CCCCC3)cc2)n1,"inconclusive: 20.6 µM [inhibitor, single point]",
CCOC(=O)N1CCN(Cc2nc3ccc([N+](=O)[O-])cc3c(=O)n2-c2cccc(OC)c2)CC1,"inconclusive: 25.9 µM [inhibitor, single point]",
CC(C)NS(=O)(=O)c1cc(C(=O)O)ccc1Cl,"inconclusive: 32.6 µM [activator, partial curve, poor fit]",
O=C(c1nnc(-c2ccc(Cl)cc2)o1)C1CCCC1,"inconclusive: 23.1 µM [activator, partial curve]",
Cc1csc(NC(=O)C(CC(C)C)NS(=O)(=O)c2ccc3c(c2)oc(=O)n3C)n1 (stereo unspecified),"inconclusive: 18.4 µM [activator, partial curve]",
O=c1oc(-c2ccc(O)c(O)c2)cc2cccc(O)c12,"inconclusive: 7.3 µM [activator, partial curve]",
O=C(c1cnn2c(C(F)F)cc(-c3ccccc3)nc12)N1CCSCC1,"inconclusive: 29.1 µM [inhibitor, single point]",
Cc1cc(-c2ccc(Cl)cc2Cl)c(C#N)c(=O)[nH]1,"inconclusive: 32.6 µM [activator, single point]",
O=C(Nc1nccs1)c1ccc(-c2ccccc2[N+](=O)[O-])o1,"inconclusive: 8.2 µM [activator, partial curve]",
CC(C)(C)CN1CCC(n2nccc2NC(=O)c2ccccc2Cl)CC1,,inactive: -1.44%
Nc1c(Cl)cc(-c2cn(CCC(=O)O)c(-c3ccc(Cl)nc3)n2)cc1Cl,,inactive: 16.5%
CCCCCn1c(CN2CCN(c3cccc(Cl)c3)CC2)nc2c1c(=O)n(C)c(=O)n2C,"inconclusive: 16.4 µM [inhibitor, partial curve]",
COc1cccc(/C=N\NC(=O)C2=NNC(=O)C2C)c1O (stereo unspecified),"inconclusive: 29.1 µM [activator, single point]",
CN1CCc2c(n(CC(O)CN3C(=O)c4ccccc4S3(=O)=O)c3ccccc23)C1=O (stereo unspecified),active: 14.6 µM,
CCCCOc1ccc(C(=O)OC2CC(C)N(C)CC2C)cc1 (stereo unspecified),,inactive: 27.1%
CSC(=S)N/N=C/c1ccc(N(C)C)cc1,"inconclusive: 16.4 µM [activator, partial curve]",
CC(C)(C)c1ccc(S(=O)(=O)Nc2ccc(Cc3ccncc3)cc2)cc1,,inactive: 6.33%
O=C(/C(Cl)=C/Nc1ccc(Br)cn1)C(F)(F)F,"inconclusive: 16.4 µM [activator, partial curve, poor fit]",

# Part of the list above, with bars between the fields:
Structure (SMILES) | Potency | activity change, negative = inhibition
O=C(c1nnc(-c2ccc(Cl)cc2)o1)C1CCCC1 | inconclusive: 23.1 µM [activator, partial curve] | 
Cc1csc(NC(=O)C(CC(C)C)NS(=O)(=O)c2ccc3c(c2)oc(=O)n3C)n1 (stereo unspecified) | inconclusive: 18.4 µM [activator, partial curve] | 
O=c1oc(-c2ccc(O)c(O)c2)cc2cccc(O)c12 | inconclusive: 7.3 µM [activator, partial curve] | 
O=C(c1cnn2c(C(F)F)cc(-c3ccccc3)nc12)N1CCSCC1 | inconclusive: 29.1 µM [inhibitor, single point] | 
Cc1cc(-c2ccc(Cl)cc2Cl)c(C#N)c(=O)[nH]1 | inconclusive: 32.6 µM [activator, single point] | 
O=C(Nc1nccs1)c1ccc(-c2ccccc2[N+](=O)[O-])o1 | inconclusive: 8.2 µM [activator, partial curve] | 
CC(C)(C)CN1CCC(n2nccc2NC(=O)c2ccccc2Cl)CC1 |  | inactive: -1.44%
Nc1c(Cl)cc(-c2cn(CCC(=O)O)c(-c3ccc(Cl)nc3)n2)cc1Cl |  | inactive: 16.5%
CCCCCn1c(CN2CCN(c3cccc(Cl)c3)CC2)nc2c1c(=O)n(C)c(=O)n2C | inconclusive: 16.4 µM [inhibitor, partial curve] | 
COc1cccc(/C=N\NC(=O)C2=NNC(=O)C2C)c1O (stereo unspecified) | inconclusive: 29.1 µM [activator, single point] | 
CN1CCc2c(n(CC(O)CN3C(=O)c4ccccc4S3(=O)=O)c3ccccc23)C1=O (stereo unspecified) | active: 14.6 µM | 
CCCCOc1ccc(C(=O)OC2CC(C)N(C)CC2C)cc1 (stereo unspecified) |  | inactive: 27.1%
CSC(=S)N/N=C/c1ccc(N(C)C)cc1 | inconclusive: 16.4 µM [activator, partial curve] | 
CC(C)(C)c1ccc(S(=O)(=O)Nc2ccc(Cc3ccncc3)cc2)cc1 |  | inactive: 6.33%
